# The list does not hold the whole screen: it is rich in T/C values a quarter to a half above the control, in often repeated tests (any T/C) and in doses without a T/C. Further doses and runs are listed elsewhere. T/C: endpoint of the treated group in % of that of the vehicle group. Some doses have a count of surviving animals in place of a T/C: the source files T/C as zero there, which appears to mark a toxic dose or a test without result, not a measured value. Some survivor counts are full or nearly so, which does not show that the dose was tolerated: the source hardly ever lists a survival T/C far under the control, and the zero likely stands for such cases as well. Counts of survivors are from the toxicity check (mostly the fifth day) where no day follows; animals may have died later. Schedules are NCI's codes, taken here to give the interval after Q, in days (D) or hours (H), and the number of doses after X. For survival time, the PubChem record calls one and a half times the control and up active, and a quarter to a half above the control has no call in these data; cut-offs in other NCI protocols can differ. Some T/C values carry the count of animals alive at the toxicity check (mostly the fifth day); where none is given, no animal had died by that day. Some entries were tested several times; the results are listed from low to high.
# System: P388 leukemia ip, CD2F1 mice, survival T/C
# Experiment: NCI In Vivo Anticancer Drug Screen. Data for tumor model P388 Leukemia (intraperitoneal) in CD2F1 (CDF1) mice
# Details: T/C endpoint: median survival time, higher T/C = longer survival
# [1] = dose: 240.0 mg/kg/injection, schedule: Q01DX005 (ip), vehicle: saline with Tween-80
# [2] = dose: 200.0 mg/kg/injection, schedule: Q01DX009 (ip), vehicle: saline with Tween-80
# [3] = dose: 50.0 mg/kg/injection, schedule: Q01DX009 (ip), vehicle: saline + Tween-80 + alcohol
# [4] = dose: 200.0 mg/kg/injection, schedule: Q01DX005 (ip), vehicle: saline with Tween-80
# [5] = dose: 200.0 mg/kg/injection, schedule: Q01DX005 (ip), vehicle: Klucel (hydroxypropylcellulose) (HPC)
# [6] = dose: 400.0 mg/kg/injection, schedule: Q01DX009 (ip), vehicle: Klucel (hydroxypropylcellulose) (HPC)
compound,measurement,setting,value
CC(C)c1nccn1Cc1ccc(Cl)cc1Cl,survivor count,[1],0 of 6
CCCCN(CCCC)CC(O)c1cc(-c2ccc(Cl)cc2)nc(-c2ccc(Cl)cc2)c1 (centres undefined),survivor count,[2],5 of 6
CC(C)[C@H]1OC(=O)C=C2[C@@]13O[C@@H]3[C@H]1OC(=O)[C@]3(C)C1[C@]2(C)CC[C@@H]3O (some centres undefined),T/C,"dose: 10.0 mg/kg/injection, schedule: Q01DX009 (ip), vehicle: saline with Tween-80",125 and 129 % of control
same,T/C,"dose: 20.0 mg/kg/injection, schedule: Q01DX009 (ip), vehicle: saline with Tween-80",125 % of control
CCCCCCCCCCCC[C@@H](O)[C@H]1CC[C@H]([C@H](O)CCCC[C@H](O)CCCCC[C@@H](O)CC2=C[C@H](C)OC2=O)O1,survivor count,"dose: 3.0 mg/kg/injection, schedule: Q01DX009 (ip), vehicle: other",3 of 4
same,survivor count,"dose: 6.0 mg/kg/injection, schedule: Q01DX009 (ip), vehicle: other",0 of 4
C/C=C/C=C1/OC(C)=C(C(C)=O)C1=O,T/C,[3],126 % of control
same,T/C,"dose: 50.0 mg/kg/injection, schedule: Q01DX009 (ip), vehicle: saline with Tween-80",128 % of control
same,survivor count,[2],4 of 6
CCCCOP(O)(=S)OCCCC.[Gd],survivor count,"dose: 100.0 mg/kg/injection, schedule: Q01DX009 (ip), vehicle: saline with Tween-80",6 of 6
Cc1ccc(C(=O)Nc2ccc(S(=O)(=O)O)c3cc(S(=O)(=O)O)cc(S(=O)(=O)O)c23)cc1NC(=O)c1cccc(NC(=O)Nc2cccc(C(=O)Nc3cc(C(=O)Nc4ccc(S(=O)(=O)O)c5cc(S(=O)(=O)O)cc(S(=O)(=O)O)c45)ccc3C)c2)c1,survivor count,"dose: 100.0 mg/kg/injection, schedule: Q01DX005 (ip), vehicle: saline",4 of 6
same,survivor count,"dose: 200.0 mg/kg/injection, schedule: Q01DX005 (ip), vehicle: saline",2 of 6
CN(CCc1ccccn1)c1ccc2c(c1)C(=O)c1ccccc1-2,survivor count,[4],0 of 5
COc1ccc2cc3c(nc2c1N)C(=O)C(N1CC1)=C(N1CC1)C3=O,T/C,"dose: 50.0 mg/kg/injection, schedule: Q01DX005 (ip), vehicle: Klucel (hydroxypropylcellulose) (HPC)",131 % of control
same,T/C,"dose: 100.0 mg/kg/injection, schedule: Q01DX005 (ip), vehicle: Klucel (hydroxypropylcellulose) (HPC)",135 % of control
same,T/C,[5],135 % of control [5 of 6 alive]
C[C@]12CC[C@H](O)C=C1CC[C@@H]1[C@@H]2CC[C@]2(C)C(c3ccc(=O)oc3)CC[C@]12O (some centres undefined),survivor count,"dose: 100.0 mg/kg/injection, schedule: Q01DX009 (ip), vehicle: Klucel (hydroxypropylcellulose) (HPC)",0 of 6
same,survivor count,"dose: 200.0 mg/kg/injection, schedule: Q01DX009 (ip), vehicle: Klucel (hydroxypropylcellulose) (HPC)",0 of 6
same,survivor count,[6],0 of 6
O=C(Cc1nc2ccccc2s1)Nc1ccc2ccccc2c1,survivor count,[1],2 of 6
ClCCc1ccn[nH]1,survivor count,"dose: 400.0 mg/kg/injection, schedule: Q04DX002 (ip), vehicle: saline",6 of 6
O=C(Nc1cccc(NC(=O)Nc2cccc(C3=NCCN3)c2)c1)Nc1cccc(C2=NCCN2)c1,T/C,"dose: 27.0 mg/kg/injection, schedule: Q01DX010 (ip), vehicle: saline",131 % of control
same,T/C,"dose: 40.0 mg/kg/injection, schedule: Q01DX010 (ip), vehicle: saline",127 % of control
same,T/C,"dose: 66.0 mg/kg/injection, schedule: Q01DX010 (ip), vehicle: saline",127 % of control
CN1CCc2cccc3c2[C@H]1Cc1ccc(O)c(O)c1-3,survivor count,[5],4 of 5
COC(=O)N(C)SN(C)C(=O)O/N=C(\SC)C(=O)N(C)C,survivor count,"dose: 6.25 mg/kg/injection, schedule: Q01DX009 (ip), vehicle: saline",0 of 6
same,survivor count,"dose: 12.5 mg/kg/injection, schedule: Q01DX009 (ip), vehicle: saline",0 of 6
same,survivor count,"dose: 25.0 mg/kg/injection, schedule: Q01DX009 (ip), vehicle: saline",0 of 6
same,survivor count,"dose: 50.0 mg/kg/injection, schedule: Q01DX009 (ip), vehicle: saline",0 of 6
same,survivor count,"dose: 100.0 mg/kg/injection, schedule: Q01DX009 (ip), vehicle: saline",0 of 6
same,survivor count,"dose: 200.0 mg/kg/injection, schedule: Q01DX009 (ip), vehicle: saline",0 of 6
CCCCCCCCCCCC(=O)OCCN(CCOC(=O)CCCCCCCCCCC)C(=O)COC(=O)CCCCCCCCCCC,survivor count,[3],5 of 6
O=C(CN1CCN(c2ccccc2)CC1)n1cnc2ccc([N+](=O)[O-])cc21,survivor count,[1],6 of 6
O=C1N=NC2=C1c1c3ccccc3c(O)n1CC2,survivor count,[4],6 of 6
NNC(=O)C(=O)NNC1CCCCC1,survivor count,[6],0 of 6
Nc1ccc2nc3ccc(=O)cc-3n(-c3ccccc3)c2c1,T/C,"dose: 1.0 mg/kg/injection, schedule: Q01DX009 (ip), vehicle: saline",131 % of control
same,T/C,"dose: 2.5 mg/kg/injection, schedule: Q01DX009 (ip), vehicle: saline",130 and 144 % of control [5 of 6 alive]
same,T/C,"dose: 5.0 mg/kg/injection, schedule: Q01DX009 (ip), vehicle: saline",139 and 145 % of control
same,T/C,"dose: 10.0 mg/kg/injection, schedule: Q01DX009 (ip), vehicle: saline",140 % of control

# Reference: PubChem BioAssay AID330 (DTP/NCI, 2004)
